Data reported in the supplement of paper PMC12819154, “High-throughput peptide-centric local stability assay extends protein–ligand identification to membrane proteins, tissues and bacteria” (Nature Structural & Molecular Biology, 2025).
Some of the results follow. Most entries show no effect beyond the scatter of the controls.

Protein sequences, listed by entry. Tags and fused reporters are not part of them. Lines headed by an entry give the natural chain unless they say otherwise; changes in a name come on top.
UniProt P53995, whole entry: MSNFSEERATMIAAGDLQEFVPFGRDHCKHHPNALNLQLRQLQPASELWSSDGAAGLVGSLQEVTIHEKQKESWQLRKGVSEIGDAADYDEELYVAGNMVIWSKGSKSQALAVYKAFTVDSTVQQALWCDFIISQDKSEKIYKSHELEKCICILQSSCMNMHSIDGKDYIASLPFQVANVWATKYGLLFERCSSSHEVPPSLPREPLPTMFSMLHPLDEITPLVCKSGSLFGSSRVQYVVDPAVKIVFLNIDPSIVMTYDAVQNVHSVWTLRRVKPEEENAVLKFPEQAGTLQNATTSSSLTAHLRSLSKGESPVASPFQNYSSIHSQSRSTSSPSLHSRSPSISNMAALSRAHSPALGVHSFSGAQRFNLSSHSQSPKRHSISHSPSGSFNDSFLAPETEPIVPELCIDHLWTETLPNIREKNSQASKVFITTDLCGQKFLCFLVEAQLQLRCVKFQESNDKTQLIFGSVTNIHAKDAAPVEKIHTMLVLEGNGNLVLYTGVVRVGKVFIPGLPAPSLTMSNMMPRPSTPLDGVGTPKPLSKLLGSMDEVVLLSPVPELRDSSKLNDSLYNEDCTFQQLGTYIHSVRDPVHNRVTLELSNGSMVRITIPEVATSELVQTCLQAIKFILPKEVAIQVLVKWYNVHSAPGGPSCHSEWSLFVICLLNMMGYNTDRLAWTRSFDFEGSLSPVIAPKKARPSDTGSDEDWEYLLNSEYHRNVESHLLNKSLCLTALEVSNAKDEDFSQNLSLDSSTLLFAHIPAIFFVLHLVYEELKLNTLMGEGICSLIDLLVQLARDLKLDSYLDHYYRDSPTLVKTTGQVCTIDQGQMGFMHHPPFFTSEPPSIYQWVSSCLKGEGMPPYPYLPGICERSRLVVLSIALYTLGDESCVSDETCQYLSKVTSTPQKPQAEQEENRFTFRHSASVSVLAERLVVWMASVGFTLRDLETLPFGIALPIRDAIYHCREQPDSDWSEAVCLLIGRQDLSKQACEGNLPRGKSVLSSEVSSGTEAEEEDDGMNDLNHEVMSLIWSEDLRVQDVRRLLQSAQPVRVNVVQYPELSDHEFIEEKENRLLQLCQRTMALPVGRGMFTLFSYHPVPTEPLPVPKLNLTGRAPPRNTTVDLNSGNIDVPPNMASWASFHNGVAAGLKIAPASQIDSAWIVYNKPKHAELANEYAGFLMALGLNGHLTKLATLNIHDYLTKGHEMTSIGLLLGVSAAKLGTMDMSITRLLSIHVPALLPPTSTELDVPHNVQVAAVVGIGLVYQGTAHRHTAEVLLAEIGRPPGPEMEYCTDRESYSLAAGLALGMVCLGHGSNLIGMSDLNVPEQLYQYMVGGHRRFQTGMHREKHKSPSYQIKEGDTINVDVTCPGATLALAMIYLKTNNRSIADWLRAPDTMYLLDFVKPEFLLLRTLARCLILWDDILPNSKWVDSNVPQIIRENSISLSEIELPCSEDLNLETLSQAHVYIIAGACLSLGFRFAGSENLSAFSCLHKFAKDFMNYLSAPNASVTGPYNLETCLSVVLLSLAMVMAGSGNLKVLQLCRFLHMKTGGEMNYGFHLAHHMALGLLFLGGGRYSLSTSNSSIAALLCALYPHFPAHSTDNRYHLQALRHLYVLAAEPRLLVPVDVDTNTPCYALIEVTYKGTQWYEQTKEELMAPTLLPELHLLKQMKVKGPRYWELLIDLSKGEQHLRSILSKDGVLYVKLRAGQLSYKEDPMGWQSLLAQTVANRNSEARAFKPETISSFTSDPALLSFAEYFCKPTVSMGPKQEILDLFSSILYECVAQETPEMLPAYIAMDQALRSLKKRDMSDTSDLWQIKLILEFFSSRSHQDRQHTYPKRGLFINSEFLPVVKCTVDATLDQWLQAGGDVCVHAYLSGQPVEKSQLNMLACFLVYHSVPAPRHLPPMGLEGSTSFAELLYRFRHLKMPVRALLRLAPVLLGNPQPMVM
UniProt P51432: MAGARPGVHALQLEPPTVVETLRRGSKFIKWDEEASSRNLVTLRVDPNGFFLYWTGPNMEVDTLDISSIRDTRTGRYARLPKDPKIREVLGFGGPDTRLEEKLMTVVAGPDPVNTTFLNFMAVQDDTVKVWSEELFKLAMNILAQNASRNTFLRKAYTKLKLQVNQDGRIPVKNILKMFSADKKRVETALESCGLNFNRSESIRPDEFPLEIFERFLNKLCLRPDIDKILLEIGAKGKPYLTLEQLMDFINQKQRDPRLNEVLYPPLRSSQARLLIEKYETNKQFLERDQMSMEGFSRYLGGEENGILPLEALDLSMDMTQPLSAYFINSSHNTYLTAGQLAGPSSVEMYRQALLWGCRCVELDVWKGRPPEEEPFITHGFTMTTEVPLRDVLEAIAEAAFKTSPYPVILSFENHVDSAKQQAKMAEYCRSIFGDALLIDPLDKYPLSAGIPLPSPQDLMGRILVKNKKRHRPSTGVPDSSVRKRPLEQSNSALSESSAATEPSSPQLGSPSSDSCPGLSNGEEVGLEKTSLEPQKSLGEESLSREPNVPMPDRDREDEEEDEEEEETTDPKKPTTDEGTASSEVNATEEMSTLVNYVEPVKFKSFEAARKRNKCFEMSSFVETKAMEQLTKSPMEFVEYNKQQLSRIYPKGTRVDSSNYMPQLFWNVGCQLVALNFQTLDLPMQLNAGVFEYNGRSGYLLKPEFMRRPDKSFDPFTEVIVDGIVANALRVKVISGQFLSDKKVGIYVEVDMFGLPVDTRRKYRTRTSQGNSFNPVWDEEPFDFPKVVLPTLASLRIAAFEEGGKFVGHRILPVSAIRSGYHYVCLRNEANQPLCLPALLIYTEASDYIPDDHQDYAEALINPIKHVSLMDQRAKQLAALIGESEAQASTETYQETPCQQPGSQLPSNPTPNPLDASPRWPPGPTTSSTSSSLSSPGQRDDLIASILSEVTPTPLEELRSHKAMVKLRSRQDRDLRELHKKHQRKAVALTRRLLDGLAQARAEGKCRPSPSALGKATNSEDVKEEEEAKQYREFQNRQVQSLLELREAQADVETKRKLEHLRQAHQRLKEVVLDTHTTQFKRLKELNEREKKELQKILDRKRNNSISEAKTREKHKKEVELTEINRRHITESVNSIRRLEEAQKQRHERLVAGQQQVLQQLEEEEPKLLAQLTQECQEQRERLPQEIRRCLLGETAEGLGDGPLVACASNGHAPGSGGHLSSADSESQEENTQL
UniProt P36371: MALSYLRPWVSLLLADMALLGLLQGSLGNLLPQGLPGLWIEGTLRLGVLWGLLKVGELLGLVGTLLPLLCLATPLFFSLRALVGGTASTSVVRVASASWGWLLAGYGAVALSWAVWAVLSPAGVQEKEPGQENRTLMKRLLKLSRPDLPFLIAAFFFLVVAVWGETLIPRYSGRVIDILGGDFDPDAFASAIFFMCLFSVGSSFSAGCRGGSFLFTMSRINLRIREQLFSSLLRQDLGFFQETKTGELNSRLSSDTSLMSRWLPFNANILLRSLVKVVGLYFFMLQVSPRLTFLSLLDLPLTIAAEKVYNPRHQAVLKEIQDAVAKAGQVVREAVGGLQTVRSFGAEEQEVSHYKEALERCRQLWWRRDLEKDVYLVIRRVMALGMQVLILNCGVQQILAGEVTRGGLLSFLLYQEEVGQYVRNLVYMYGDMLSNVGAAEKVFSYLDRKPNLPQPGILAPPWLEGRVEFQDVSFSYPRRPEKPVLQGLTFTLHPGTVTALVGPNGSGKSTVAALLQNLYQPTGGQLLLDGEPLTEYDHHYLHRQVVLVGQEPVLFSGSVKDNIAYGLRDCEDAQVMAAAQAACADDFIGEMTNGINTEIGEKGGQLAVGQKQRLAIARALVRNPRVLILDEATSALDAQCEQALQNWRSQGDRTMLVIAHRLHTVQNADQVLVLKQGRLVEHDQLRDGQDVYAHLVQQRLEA
UniProt P46664: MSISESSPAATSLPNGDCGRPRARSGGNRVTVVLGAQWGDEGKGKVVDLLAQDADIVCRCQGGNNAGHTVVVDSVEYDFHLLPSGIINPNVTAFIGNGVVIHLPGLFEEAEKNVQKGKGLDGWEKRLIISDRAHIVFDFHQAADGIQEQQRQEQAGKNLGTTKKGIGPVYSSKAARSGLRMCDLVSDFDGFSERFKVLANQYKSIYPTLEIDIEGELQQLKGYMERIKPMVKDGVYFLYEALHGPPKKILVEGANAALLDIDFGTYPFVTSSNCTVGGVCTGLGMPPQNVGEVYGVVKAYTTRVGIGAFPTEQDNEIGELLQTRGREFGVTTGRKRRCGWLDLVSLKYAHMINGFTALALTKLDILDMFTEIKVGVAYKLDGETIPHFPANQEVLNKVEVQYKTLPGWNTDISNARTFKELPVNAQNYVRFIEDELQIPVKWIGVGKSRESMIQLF
UniProt P52623: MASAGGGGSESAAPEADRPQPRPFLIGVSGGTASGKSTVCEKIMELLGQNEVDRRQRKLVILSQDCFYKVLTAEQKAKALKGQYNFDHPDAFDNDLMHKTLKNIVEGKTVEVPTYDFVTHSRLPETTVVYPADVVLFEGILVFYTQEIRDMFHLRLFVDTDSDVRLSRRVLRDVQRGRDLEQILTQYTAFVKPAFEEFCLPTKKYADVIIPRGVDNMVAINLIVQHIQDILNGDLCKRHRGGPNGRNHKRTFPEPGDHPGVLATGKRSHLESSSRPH
UniProt P47226: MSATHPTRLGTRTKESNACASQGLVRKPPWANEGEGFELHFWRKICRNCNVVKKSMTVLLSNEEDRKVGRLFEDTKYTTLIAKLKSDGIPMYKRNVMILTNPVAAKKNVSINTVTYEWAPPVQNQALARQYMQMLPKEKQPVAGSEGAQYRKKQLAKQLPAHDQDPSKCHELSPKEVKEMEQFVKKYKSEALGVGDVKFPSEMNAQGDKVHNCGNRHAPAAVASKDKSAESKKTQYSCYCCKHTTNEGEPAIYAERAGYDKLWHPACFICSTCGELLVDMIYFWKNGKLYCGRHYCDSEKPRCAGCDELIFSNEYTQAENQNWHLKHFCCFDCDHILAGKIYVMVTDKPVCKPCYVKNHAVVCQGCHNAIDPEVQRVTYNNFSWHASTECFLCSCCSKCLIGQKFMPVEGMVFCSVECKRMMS
UniProt P45952: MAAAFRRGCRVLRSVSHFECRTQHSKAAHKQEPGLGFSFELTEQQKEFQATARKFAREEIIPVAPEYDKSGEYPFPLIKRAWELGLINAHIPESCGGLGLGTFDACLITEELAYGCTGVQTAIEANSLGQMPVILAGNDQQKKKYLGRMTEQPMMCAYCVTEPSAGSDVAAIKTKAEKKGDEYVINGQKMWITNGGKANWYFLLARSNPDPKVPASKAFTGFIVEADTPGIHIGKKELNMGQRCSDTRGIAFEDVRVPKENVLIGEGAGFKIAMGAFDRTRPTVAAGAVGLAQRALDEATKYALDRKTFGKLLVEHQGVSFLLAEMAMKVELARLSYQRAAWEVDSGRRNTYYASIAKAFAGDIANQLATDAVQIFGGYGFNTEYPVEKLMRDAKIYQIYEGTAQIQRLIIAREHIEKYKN
UniProt P35582: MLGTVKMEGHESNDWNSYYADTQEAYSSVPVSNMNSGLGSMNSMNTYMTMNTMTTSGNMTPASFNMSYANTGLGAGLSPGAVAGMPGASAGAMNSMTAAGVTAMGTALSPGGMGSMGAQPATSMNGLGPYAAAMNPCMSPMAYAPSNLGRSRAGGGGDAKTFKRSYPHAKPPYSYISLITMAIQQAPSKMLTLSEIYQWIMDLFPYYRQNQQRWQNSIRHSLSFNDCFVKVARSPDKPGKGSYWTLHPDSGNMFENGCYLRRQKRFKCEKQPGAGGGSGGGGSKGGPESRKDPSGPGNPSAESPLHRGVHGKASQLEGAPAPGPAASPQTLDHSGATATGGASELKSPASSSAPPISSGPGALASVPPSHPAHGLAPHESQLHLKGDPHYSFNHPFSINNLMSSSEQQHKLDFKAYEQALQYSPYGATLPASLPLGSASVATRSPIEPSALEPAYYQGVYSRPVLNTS

compound: CN[C@@H]1C[C@H]2O[C@@](C)([C@@H]1OC)n1c3ccccc3c3c4c(c5c6ccccc6n2c5c31)C(=O)NC4 [staurosporine]; test: log2 fold change of tryptic peptide abundance, ligand vs vehicle (limited proteolysis) (log2 ratio); higher = more trypsin-susceptible (destabilized); settings: ligand concentration: 20 uM; sample: mouse liver crude lysate; replicate design: treated separately

| Target | log2 fold change |
| --- | --- |
| UniProt P53995 (peptide sequence: FNLSSHSQSPKR, peptide start residue: 369) | -0.241 |
| UniProt P51432 (peptide sequence: SLGEESLSR, peptide start residue: 537) | -0.235 |
| UniProt P36371 (peptide sequence: IREQLFSSLLR, peptide start residue: 224) | 0.321 |
| UniProt P46664 (peptide sequence: GLDGWEKR, peptide start residue: 119) | 0.283 |
| UniProt P52623 (peptide sequence: RTFPEPGDHPGVLATGKR, peptide start residue: 250) | 0.244 |
| UniProt P47226 (peptide sequence: YKSEALGVGDVK, peptide start residue: 187) | 0.456 |
| UniProt P45952 (peptide sequence: NTYYASIAK, peptide start residue: 350) | 0.101 |
| UniProt P35582 (peptide sequence: KDPSGPGNPSAESPLHR, peptide start residue: 291) | 0.142 |

Nothing new here: entries from further up.

| Target | log2 fold change |
| --- | --- |
| UniProt P47226 (peptide sequence: YKSEALGVGDVK, peptide start residue: 187) | 0.456 |
| UniProt P45952 (peptide sequence: NTYYASIAK, peptide start residue: 350) | 0.101 |
